# Measurements from the supplement of paper PMC11006884.
# By UniProt entry, the sequences of proteins in these tests, tags left out. Where a name states a change or a piece, a line headed by the entry shows the natural chain unless it says otherwise.
# UniProt O00541, whole entry, looked up: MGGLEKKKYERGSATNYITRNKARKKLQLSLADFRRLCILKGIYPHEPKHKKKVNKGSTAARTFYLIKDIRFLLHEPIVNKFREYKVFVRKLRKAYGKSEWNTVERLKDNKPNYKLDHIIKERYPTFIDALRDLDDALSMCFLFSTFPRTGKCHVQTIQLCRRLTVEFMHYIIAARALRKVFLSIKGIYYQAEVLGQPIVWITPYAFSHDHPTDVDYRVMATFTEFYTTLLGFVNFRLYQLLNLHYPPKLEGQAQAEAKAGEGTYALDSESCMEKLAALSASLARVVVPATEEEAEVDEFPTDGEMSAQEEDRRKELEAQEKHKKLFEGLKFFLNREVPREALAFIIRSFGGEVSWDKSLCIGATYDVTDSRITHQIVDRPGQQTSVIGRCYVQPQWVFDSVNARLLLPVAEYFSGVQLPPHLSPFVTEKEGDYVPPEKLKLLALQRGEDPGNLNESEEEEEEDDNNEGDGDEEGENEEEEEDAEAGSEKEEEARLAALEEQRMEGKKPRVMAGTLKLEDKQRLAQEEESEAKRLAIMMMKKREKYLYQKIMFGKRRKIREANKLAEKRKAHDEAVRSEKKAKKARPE
# UniProt O00566: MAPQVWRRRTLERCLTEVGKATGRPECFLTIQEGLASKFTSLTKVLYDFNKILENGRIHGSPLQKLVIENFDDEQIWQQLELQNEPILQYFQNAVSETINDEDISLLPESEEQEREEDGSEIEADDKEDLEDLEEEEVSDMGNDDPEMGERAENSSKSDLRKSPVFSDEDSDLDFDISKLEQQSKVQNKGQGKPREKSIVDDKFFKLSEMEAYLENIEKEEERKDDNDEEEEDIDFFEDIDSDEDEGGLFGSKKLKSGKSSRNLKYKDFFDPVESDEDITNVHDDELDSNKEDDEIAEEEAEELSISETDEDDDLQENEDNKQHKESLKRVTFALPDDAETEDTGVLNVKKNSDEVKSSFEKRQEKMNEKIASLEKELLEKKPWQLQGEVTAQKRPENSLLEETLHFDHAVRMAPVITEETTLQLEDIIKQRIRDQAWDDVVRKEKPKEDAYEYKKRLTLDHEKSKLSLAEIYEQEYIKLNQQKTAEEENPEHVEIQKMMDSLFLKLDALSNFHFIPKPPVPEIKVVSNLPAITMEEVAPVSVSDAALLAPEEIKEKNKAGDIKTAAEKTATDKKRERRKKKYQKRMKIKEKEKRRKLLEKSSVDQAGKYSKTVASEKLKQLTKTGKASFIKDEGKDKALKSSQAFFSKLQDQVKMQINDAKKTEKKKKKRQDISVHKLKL
# UniProt O14545: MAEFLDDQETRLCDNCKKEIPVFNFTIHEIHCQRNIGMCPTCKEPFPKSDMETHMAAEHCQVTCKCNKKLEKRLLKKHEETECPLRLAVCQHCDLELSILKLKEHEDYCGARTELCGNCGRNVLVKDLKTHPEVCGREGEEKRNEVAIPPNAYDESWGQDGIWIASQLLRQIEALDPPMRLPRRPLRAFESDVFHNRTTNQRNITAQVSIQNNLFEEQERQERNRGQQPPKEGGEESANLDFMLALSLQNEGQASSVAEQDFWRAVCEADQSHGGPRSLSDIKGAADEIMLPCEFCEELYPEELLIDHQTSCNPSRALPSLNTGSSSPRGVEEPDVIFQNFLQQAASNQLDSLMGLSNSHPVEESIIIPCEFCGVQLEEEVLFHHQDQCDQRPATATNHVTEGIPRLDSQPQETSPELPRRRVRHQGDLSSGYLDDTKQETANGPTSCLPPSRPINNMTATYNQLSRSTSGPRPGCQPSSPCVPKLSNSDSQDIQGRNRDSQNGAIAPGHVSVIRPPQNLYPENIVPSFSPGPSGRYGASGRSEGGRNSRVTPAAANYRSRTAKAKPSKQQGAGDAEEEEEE
# UniProt O14654: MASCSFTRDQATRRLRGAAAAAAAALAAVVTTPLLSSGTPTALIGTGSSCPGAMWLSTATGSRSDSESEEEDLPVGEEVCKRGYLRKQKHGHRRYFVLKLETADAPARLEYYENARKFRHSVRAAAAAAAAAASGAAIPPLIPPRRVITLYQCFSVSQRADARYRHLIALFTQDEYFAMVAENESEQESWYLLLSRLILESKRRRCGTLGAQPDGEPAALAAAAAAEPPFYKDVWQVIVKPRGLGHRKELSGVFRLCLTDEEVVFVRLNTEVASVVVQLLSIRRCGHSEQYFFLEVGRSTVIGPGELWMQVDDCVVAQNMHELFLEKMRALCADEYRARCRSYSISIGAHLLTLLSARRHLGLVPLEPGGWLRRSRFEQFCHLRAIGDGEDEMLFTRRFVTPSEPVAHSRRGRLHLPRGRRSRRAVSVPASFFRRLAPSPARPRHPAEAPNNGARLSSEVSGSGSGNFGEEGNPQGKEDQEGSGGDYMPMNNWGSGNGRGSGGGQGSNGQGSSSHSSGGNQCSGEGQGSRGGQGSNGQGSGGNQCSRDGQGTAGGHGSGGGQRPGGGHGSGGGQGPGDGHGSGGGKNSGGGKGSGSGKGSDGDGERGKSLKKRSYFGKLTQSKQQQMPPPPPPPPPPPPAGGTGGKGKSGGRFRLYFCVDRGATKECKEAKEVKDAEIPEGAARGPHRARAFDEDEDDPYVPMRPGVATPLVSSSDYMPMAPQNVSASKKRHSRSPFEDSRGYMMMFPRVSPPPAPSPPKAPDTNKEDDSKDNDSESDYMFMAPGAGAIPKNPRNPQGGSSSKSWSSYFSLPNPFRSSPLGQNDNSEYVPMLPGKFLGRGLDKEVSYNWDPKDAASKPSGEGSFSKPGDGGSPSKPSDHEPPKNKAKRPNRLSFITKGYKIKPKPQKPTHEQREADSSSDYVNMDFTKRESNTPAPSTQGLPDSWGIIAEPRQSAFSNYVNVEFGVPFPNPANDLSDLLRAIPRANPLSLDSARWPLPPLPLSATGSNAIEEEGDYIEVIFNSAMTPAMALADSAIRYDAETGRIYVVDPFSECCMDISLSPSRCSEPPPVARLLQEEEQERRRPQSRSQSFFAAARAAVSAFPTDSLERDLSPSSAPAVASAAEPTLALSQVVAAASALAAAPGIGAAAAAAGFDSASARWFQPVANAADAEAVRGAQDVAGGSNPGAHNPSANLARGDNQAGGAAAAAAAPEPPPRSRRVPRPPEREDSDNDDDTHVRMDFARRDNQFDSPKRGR
# UniProt O15067: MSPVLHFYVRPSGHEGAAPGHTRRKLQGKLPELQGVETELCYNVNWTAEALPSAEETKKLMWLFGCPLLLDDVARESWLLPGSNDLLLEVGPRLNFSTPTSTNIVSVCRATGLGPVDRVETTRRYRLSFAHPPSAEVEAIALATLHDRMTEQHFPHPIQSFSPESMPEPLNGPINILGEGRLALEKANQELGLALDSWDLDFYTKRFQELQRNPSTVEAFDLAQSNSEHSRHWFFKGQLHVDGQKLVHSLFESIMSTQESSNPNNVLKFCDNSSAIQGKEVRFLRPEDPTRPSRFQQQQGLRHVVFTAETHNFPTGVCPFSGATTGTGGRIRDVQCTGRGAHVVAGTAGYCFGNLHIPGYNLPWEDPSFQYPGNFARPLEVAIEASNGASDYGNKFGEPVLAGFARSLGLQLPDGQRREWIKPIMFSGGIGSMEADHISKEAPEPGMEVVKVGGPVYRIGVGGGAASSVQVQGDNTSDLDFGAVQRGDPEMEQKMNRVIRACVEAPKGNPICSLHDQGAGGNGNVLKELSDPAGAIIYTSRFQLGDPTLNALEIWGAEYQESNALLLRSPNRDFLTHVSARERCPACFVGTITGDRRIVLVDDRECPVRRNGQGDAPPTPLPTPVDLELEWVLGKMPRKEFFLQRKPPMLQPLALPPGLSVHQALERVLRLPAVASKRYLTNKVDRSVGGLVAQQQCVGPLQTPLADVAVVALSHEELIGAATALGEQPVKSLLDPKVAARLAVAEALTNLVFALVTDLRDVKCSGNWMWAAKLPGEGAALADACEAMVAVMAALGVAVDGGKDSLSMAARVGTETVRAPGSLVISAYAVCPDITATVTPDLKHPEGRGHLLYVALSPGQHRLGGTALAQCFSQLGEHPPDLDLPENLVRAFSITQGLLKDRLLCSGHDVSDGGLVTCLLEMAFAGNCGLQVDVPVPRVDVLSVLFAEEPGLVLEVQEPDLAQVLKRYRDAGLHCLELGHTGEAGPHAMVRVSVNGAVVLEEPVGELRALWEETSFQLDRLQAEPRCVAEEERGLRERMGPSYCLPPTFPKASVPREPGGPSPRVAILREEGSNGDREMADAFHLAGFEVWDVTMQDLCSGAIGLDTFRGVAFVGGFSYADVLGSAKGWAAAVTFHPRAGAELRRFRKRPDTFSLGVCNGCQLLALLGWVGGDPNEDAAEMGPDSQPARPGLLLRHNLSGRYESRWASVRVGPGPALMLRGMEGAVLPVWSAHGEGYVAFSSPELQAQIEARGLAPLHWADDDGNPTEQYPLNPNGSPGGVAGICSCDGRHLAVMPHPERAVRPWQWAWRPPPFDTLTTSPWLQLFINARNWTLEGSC
# UniProt O00148, whole entry, looked up: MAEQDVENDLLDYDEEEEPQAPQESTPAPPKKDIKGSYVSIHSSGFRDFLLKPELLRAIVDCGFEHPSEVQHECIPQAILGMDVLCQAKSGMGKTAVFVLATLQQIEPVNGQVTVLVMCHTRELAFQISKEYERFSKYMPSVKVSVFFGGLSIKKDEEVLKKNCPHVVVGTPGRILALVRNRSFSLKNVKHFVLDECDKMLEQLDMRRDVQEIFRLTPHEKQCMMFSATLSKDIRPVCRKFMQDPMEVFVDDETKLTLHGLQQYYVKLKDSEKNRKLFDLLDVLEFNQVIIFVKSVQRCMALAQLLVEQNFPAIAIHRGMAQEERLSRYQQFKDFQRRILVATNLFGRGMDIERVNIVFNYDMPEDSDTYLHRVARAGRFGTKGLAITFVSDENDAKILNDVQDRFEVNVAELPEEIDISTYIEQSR
# UniProt O00159, whole entry, looked up: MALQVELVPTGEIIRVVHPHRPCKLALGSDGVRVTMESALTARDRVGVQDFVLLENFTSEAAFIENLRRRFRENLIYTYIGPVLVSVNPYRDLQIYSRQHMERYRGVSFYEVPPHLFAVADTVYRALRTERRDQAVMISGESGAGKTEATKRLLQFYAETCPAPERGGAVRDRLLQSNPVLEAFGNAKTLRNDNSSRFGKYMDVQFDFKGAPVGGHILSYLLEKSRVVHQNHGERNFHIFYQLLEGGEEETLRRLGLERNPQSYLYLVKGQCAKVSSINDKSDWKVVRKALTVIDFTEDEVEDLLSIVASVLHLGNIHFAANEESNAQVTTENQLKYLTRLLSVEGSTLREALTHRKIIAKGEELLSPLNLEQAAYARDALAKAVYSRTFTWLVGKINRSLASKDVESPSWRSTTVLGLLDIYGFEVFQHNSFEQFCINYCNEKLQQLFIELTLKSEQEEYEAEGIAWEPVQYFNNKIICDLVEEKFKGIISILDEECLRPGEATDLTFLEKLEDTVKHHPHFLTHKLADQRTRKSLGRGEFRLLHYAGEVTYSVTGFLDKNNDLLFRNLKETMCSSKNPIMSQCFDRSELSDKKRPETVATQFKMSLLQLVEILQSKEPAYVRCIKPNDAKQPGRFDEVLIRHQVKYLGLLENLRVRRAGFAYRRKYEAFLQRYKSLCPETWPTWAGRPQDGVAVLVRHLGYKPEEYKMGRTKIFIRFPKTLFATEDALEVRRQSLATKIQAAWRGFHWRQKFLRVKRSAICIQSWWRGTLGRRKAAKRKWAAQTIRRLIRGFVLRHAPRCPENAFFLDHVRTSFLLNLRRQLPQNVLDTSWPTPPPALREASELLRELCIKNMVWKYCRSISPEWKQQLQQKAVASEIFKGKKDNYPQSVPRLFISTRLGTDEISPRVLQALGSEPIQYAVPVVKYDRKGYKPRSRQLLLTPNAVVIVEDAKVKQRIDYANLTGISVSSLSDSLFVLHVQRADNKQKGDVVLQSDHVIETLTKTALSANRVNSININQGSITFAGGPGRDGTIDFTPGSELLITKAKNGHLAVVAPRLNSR
# UniProt O14777: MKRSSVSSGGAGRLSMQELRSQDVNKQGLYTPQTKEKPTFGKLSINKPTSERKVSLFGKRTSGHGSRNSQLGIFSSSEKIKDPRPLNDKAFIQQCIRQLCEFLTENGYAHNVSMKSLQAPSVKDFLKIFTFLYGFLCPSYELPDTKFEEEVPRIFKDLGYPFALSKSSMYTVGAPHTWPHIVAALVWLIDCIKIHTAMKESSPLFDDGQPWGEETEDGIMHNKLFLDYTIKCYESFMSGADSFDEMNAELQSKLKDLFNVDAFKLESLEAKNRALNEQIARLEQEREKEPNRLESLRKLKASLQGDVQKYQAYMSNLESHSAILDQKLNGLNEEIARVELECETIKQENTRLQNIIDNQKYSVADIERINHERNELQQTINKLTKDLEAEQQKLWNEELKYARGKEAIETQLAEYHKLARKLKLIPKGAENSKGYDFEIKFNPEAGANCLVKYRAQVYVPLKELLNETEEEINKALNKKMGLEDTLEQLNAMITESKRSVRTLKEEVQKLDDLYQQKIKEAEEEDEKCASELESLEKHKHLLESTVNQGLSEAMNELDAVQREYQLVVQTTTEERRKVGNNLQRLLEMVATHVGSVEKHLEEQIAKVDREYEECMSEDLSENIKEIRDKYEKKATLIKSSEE
# The list shows a part of the results, in another mix than the full data.
# Compound: COC(=O)C#Cc1ccccc1 [methyl 3-phenylpropiolate]
# Assay: log2 ratio of iodoacetamide-alkyne labeling of the cysteine site, DMSO over compound (competition); higher = stronger covalent engagement of the cysteine by the compound, active = 1 or more
# Conditions: 500 µM; treatment time 1 h; system: HEK293T cell lysate
# In short: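 Three replicates, each with duplicate channels, were prepared from HEK293T lysate (2 mg/mL) treated with vehicle or electrophile at 500 µM for 1 h at ambient temperature. Iodoacetamide alkyne was then applied for 1 h, and samples were clicked to sCIP-TMT reagents, pooled, trypsin-digested overnight at 37 °C, enriched on streptavidin, acid-eluted and analysed on Orbitrap Eclipse LC-MS/MS with FAIMS, with FragPipe quantification. The log2 competition ratio per cysteine is the mean control-channel divided by the mean compound-channel reporter intensity. Cysteines quantified in only one replicate were left out.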
row,Target,log2 ratio of iodoacetamide-alkyne labeling
1,HAT1 C376 (UniProt O14929),inactive: 0.198
2,PES1 C391 (UniProt O00541),inactive: 0.153
3,UniProt B3KU38_C358,inactive: 0.785
4,MPHOSPH10 C27 (UniProt O00566),inactive: 0.0995
5,CLIC1 C24 (UniProt O00299),inactive: -0.0212
6,XPO1 C34 (UniProt O14980),inactive: -0.072
7,PDLIM1 C260 (UniProt O00151),inactive: -0.234
8,TRAFD1 C482 (UniProt O14545),active: 1.55
9,IRS4 C1055 (UniProt O14654),inactive: 0.134
10,PFAS C108 (UniProt O15067),inactive: 0.0713
11,PFAS C318 (UniProt O15067),inactive: 0.0015
12,UniProt O00148_C86,inactive: 0.118
13,SETD1A C243 (UniProt O15047),inactive: 0.308
14,ARPC2 C120 (UniProt O15144),inactive: -0.0732
15,ACOT8 C13 (UniProt O14734),inactive: 0.228
16,GEMIN2 C63 (UniProt O14893),inactive: 0.211
17,PODXL C344 (UniProt O00592),inactive: 0.214
18,MYO1C C161 (UniProt O00159),inactive: 0.339
19,IRS4 C545 (UniProt O14654),inactive: 0.932
20,PSMD12 C255 (UniProt O00232),inactive: -0.0937
21,NDC80 C449 (UniProt O14777),inactive: 0.0971
22,UniProt O15063_C512,inactive: 0.782

# Some values from above:
# PFAS C318 (UniProt O15067) | log2 ratio of iodoacetamide-alkyne labeling: inactive: 0.0015
# XPO1 C34 (UniProt O14980) | log2 ratio of iodoacetamide-alkyne labeling: inactive: -0.072
